PubChem BioAssay AID720505 – Drosophila RNAi Screening Center – 2013
The deposit covers about 20,000 reagents; below is a random part of those that have a named target and a result. In the full data, about 2,100 (10%) got an active call. 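Raw plate signals without normalisation; calls rest on control-based scores that were not deposited; replicate 2 separates called from uncalled poorly.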 Entries without a mark were called inactive. Names joined by + are all predicted targets of the reagent. Not given: the amount of reagent, the time to read-out.

Screen: 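Fly regulators or components of the CRAC channel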 (primary screen)
Cells: Drosophila S2R+ cells
Reagent: long dsRNA against Drosophila genes
Treatment: thapsigargin (2 µM) in calcium-free buffer to empty internal stores, then 2 mM calcium added back
Read-out: 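Stores emptied by 2 µM thapsigargin without calcium, then 2 mM calcium re-added; fluo-4 fluorescence followed by FLIPR in 384-well plates, per-well averaged endpoint, raw; two screen passes, some wells retested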
Reading the numbers: calcium signal and retest calcium signal: higher = more calcium entry after store depletion
Rule for the call: 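Knock-downs counted as hits when calcium entry dropped relative to STIM1 positive and Rho1 negative controls present on each plate; roughly 1500 genes called, with reductions of differing size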
Calls: active = called as lowering calcium entry; inactive = not called

"calcium signal, replicate 1","calcium signal, replicate 2","retest calcium signal, replicate 1","retest calcium signal, replicate 2",gene,DRSC id
67.9 (active),76.3,,,CG4757,DRSC14130
114,158,,,sano,DRSC06165
107,98.3,,,CG17549,DRSC02625
105,132,,,hppy,DRSC07014
105,154,,,hppy,DRSC07015
92,111,,,hppy,DRSC07016
116,114,,,Ypel,DRSC17996
158,162,,,Dgk,DRSC05064
155,103,,,Dgk,DRSC05065
144,152,,,Dgk,DRSC06171
72.6,77.5,129,107,Dgk,DRSC06782
58.8 (active),117,,,Dgk,DRSC22236
78.5 (active),75.7,,,step,DRSC03694
127,106,,,step,DRSC03699
102,113,,,Vm34Ca,DRSC03475
138,110,,,Arp8,DRSC20059
56 (active),78.9,,,Spn42Dd,DRSC05024
95.6,212,,,Spn42Dd,DRSC22060
90.1,82.8,,,TfIIEalpha,DRSC11303
155,224,,,CG13585,DRSC04221
213,183,,,Tsp42A,DRSC04862
148,124,,,Zasp52,DRSC06269
114,130,,,Zasp52,DRSC07121
79.2,66.5,,,CG10654,DRSC09767
180,203,,,slo,DRSC17057
122,230,,,slo,DRSC21896
111,146,,,slo,DRSC23295
203,139,,,Polr3G,DRSC21511
123,102,,,CG15594,DRSC12280
147,180,,,TMEM216,DRSC16378
139,128,,,CG2691,DRSC19866
97.8,134,,,Mybbp1A,DRSC18788
118,64.9,,,SrpRalpha,DRSC20251
93.4,121,,,CG13218,DRSC06340
83,79,82.2,102,Cse1,DRSC03287
69.7 (active),83.1,82.6,112,RpL7-like,DRSC02836
140,116,,,CG5550,DRSC06943
122,95.1,,,CG31709,DRSC01081
168,158,,,Liprin-gamma,DRSC04093
91.1,119,,,SNCF,DRSC10115
227,218,,,CG10345,DRSC14138
159,121,,,CG14260,DRSC14755
139,107,,,Arpc4,DRSC02917
252,322,,,tst + CG10375,DRSC14237
153,106,,,MED4,DRSC11014
115,92.3,,,CG15317,DRSC18005
129,81.5,,,hiro,DRSC08564
108,89.8,,,Swim,DRSC04334
79.7 (active),75.6,,,CG34181,DRSC01071

Limited to “calcium signal, replicate 2”, for 8 of the entries above:
Spn42Dd [DRSC22060] = 212
TfIIEalpha [DRSC11303] = 82.8
CG13585 [DRSC04221] = 224
Tsp42A [DRSC04862] = 183
Zasp52 [DRSC06269] = 124
Zasp52 [DRSC07121] = 130
CG10654 [DRSC09767] = 66.5
slo [DRSC17057] = 203

The list goes on:
"calcium signal, replicate 1","calcium signal, replicate 2","retest calcium signal, replicate 1","retest calcium signal, replicate 2",gene,DRSC id
105,135,,,CG7841,DRSC10922
67.1 (active),47.4,,,Srp9,DRSC10973
83.8,169,,,CG9875,DRSC04585
126,136,,,Gsc,DRSC00755
53.6,205,,,Cht4,DRSC04603
60.5,79.4,,,Mrtf,DRSC08263
66.8,118,,,Mrtf,DRSC08410
89.4,120,,,Mrtf,DRSC08411
122,141,,,Mrtf,DRSC23194
126,89.1,167,166,Pex10,DRSC08599
76.8,201,,,Pex10,DRSC22021
127,139,,,CG16762,DRSC08493
106,92,,,CG42809,DRSC02532
275,143,,,CG6503,DRSC16056
104,175,,,CG14331,DRSC14810
143,93.5,,,CG10494,DRSC04072
135,96.1,,,CG14247,DRSC14742
104,237,,,Agpat2,DRSC03532
66.5 (active),118,,,VhaM9.7-c,DRSC08204
176,161,,,Samuel,DRSC02156
165,141,,,Samuel,DRSC02401
225,141,,,Samuel,DRSC02402
109,88.2,,,Samuel,DRSC21731
100,133,,,Samuel,DRSC23114
98.2,104,,,Hecw,DRSC18261
64.5 (active),108,,,Hecw,DRSC18276
121,150,,,metro,DRSC06341
80.6,141,,,metro,DRSC06725
159,159,,,CG5882,DRSC15907
131,197,,,Tsen34,DRSC22932
104,165,,,CG33463,DRSC22915
170,89.2,,,Cyt-b5,DRSC07392
104,9829,,,Cht12,DRSC03844
86,118,,,asRNA:CR43159 + yellow-k,DRSC10851
98.9,95.2,,,Nepl12,DRSC16411
91.2,96.1,,,CG13049,DRSC09930
79.1,110,,,CG14450,DRSC11707
67.8 (active),264,,,CARPA,DRSC17905
127,108,,,CARPA,DRSC21633
176,106,,,CG15706,DRSC06577
60.9,64.9,,,CG7194,DRSC10784
79.8,4653,,,CG30398,DRSC03891
90.3,227,,,SLC22A,DRSC11826
128,178,,,SLC22A,DRSC11827
104,105,,,Phae2,DRSC02555
125,141,,,CG15186,DRSC12566
124,192,,,NijB,DRSC09850
127,177,,,CG12826,DRSC06175
105,115,,,kz,DRSC18786
111,180,,,Gdh,DRSC16679
119,118,,,CG10418,DRSC09720
95.6,70.1,,,CG32073,DRSC09894
97.5,69,,,Bulli,DRSC10974
130,221,,,CG18213,DRSC15316
103,117,,,mRpS35,DRSC08551
179,154,,,Egm,DRSC07319
73.1,84.6,,,Egm,DRSC22860
